Consider 3 sequences from PMC6529005.

Series [1] deals with endogenous FMRP (mouse (E17 brain)) (UniProt P35922). Briefly: pull-down, immunoblot. The following applies: RIPA, mouse brain lysate; pull-down: RIPA (150 mM NaCl, 50 mM Tris pH 8.0), room temperature; protein in an extract.
Series [2] has as its target endogenous phosphorylated FMRP (P-FMRP) (mouse (E17 brain)) (UniProt P35922). Kind of series: pull-down, immunoblot. To be noted: RIPA, mouse brain lysate; pull-down: RIPA (150 mM NaCl, 50 mM Tris pH 8.0), room temperature; protein in an extract.
In series [3] the target is FMRP RGG peptide (UniProt Q06787). Kind of series: EMSA. The following applies: 5 mM KCl; EMSA: 0.5x TBE native gels at 4 C (5 mM KCl for PSD-95 RNAs), incubation at room temperature 15-20 min.
Series [4] addresses FMRP S500D (UniProt Q06787). Briefly: EMSA. The following applies: 200 nM RNA, up to 1:2; EMSA: 0.5x TBE native gels at 4 C (5 mM KCl for PSD-95 RNAs), incubation at room temperature 15-20 min; recombinant protein; residues 1-632; protein details: C-terminal 6xHis.

For some of these results: Weaker means in comparison with the reference protein, sequence or condition of that experiment. For some of these results: The exact form of at least one protein or probe is not confirmed. For some of these results: At least one result comes from cells or an extract, where the contact may be indirect. For some of these results: At least one verdict rests on a figure or table, not on a statement of the authors.

“GGGAAAAGGGAGGGAUGGGUCUAGGGAGUGGGAAAUGCGGGAGGGAGGGUGGG [Bi-PSD-95 Q1-Q2]”: the binding result in series [1] and in series [2] was “binds” throughout. For GGGAAAAGGGAGGGAUGGG [PSD-95 Q11234], the binding result in series [3] was “binds”. On to UCCCUGAGACCCUUUAGACUGUGA [miR-125a-Mut], for which, in series [4], the binding result is “binds more weakly”.
